In publication PMC12040169 (PLOS Biology, 2025):
This is one part of the list.

system: T1, CTL2-GFP (C. trachomatis L2/434/Bu, GFP-expressing); set-up: species or system HeLa; Intracellular C. trachomatis growth in HeLa cells, bulk GFP fluorescence relative to DMSO; conditions: bulk GFP, single well; 28.5 h, 10 µM; inhibitor
T1 construct: L2/434/Bu, GFP-expressing

Structure (SMILES) | % of control remaining
COc1ccc(Cn2c(C3CCNCC3)cc3cccnc32)cc1 [CBK285077] | 142.743%
Clc1ccc(COc2ccnc(N3CCCNCC3)n2)cc1Cl [CBK091550] | 58.1273%
N#CCCN(CCC#N)C(=O)CN1C(=O)c2ccccc2C1=O [CBK267100] | 155.761%
O=C(CCn1c(-c2ccccc2)c(-c2ccccc2)c2ccccc21)N/N=C/c1cccc(O)c1 [CBK262348] | 65.1139%
CC(C)c1cc(C(=O)N2CC(N3CCOCC3)C2)nc2ncnn12 [CBK306572] | 114.738%
CN(C)CCNc1nc(-c2cccnc2)nc2ccccc12 [CBK264471C] | 100%
COc1cc(CNc2cc(-c3cccc4cccnc34)ncn2)cc(OC)c1OC [CBK091179] | 105.916%
O=C(/C=C/c1cn([C@H]2C[C@@H](O)[C@@H](CO)O2)c(=O)[nH]c1=O)ON1C(=O)CCC1=O [CBK201188] | 186.405%
CNC(=O)c1ccc(-c2cccc(Cl)c2Cl)nc1N1CCOCC1 [CBK106215] | 97.8707%
Cc1nn(C)cc1-c1cncn1C(C)(C)CN1CCC(C)CC1 [CBK281740] | 139.871%
COc1ccccc1CC(C)NC(=O)c1csc(C(C)=O)c1 (stereo not shown) [CBK282517] | 74.3703%
COc1ccc(CCNC(=O)c2cnoc2-c2ccc(C)cc2)cc1 [CBK153731] | 97.9012%
Cc1ccc(-c2cc(C(=O)NC3CN4CCC3CC4)[nH]n2)o1 (stereo not shown) [CBK283276] | 125.009%
Clc1ccc(COc2cccc3c2CCCC3)cn1 [CBK002634] | 90.7821%
Nc1ncc(-c2ccc(Cl)cc2)c(C2CCCN(C(=O)Cc3c[nH]c4ccccc34)C2)n1 (stereo not shown) [CBK285574] | 86.0259%
CS(=O)(=O)c1ccc(-n2nnnc2CNC2(CO)CCCC2)cc1 [CBK304134] | 95.5962%
CC1CCCCN1C(=O)Cn1cnc2c(Cl)cc(Cl)cc2c1=O (stereo not shown) [CBK306149] | 114.853%
CC1CCC(N(Cc2nnc(C(C)C)o2)CC2CCCO2)CC1 (stereo not shown) [CBK305169] | 100.429%
NC(=O)c1ccc(-n2ncc(-c3ccsc3)n2)cc1 [CBK112858] | 141.025%
CC1=NNC(=S)NC(C)(C)C1 [CBK021597] | 72.9584%

Pulled by compound from the entries so far:
Structure (SMILES) | % of control remaining
CS(=O)(=O)c1ccc(-n2nnnc2CNC2(CO)CCCC2)cc1 [CBK304134] | 95.5962%
CNC(=O)c1ccc(-c2cccc(Cl)c2Cl)nc1N1CCOCC1 [CBK106215] | 97.8707%

More entries:

Structure (SMILES) | % of control remaining
Cc1c(Cl)cccc1S(=O)(=O)Nc1cccc(C(=O)Nc2ccc(F)cc2)c1 [CBK038983] | 89.3338%
Cc1ccc(CCC(=O)NNc2ccccc2)o1 [CBK260924] | 104.556%
CC(=O)N1CCC2(C/C=C/C[C@H]3CN(C(=O)CCC4CCCC4)CC[C@H]3NC(=O)CNC2=O)CC1 [CBK292111] | 145.786%
O=C(Cn1ncn2c(cc3ccsc32)c1=O)N1CCCCCC1 [CBK284202] | 107.476%
O=C(COc1ccc2ccccc2c1)N1CCN(S(=O)(=O)c2ccc([N+](=O)[O-])cc2)CC1 [CBK264277] | 136.707%
CC(C)Cc1nsc(NC2CCCN(c3ccn(C)n3)C2=O)n1 (stereo not shown) [CBK304696] | 168.553%
NC(=O)C1CCN(C(=O)C2=NN(c3ccccc3)C(c3ccccc3)C2)CC1 (stereo not shown) [CBK296760] | 120.682%
COCCC(=O)Nc1cccc(N2CCNCC2)c1 [CBK004769T] | 121.243%
O=C1CCC(=O)N1CCOc1nccnc1N1CCN(CCCn2c(=O)[nH]c3ccccc32)CC1 [CBK084300] | 49.949%
CCC(CO)NCc1ccc(OCC(N)=O)cc1 (stereo not shown) [CBK304670] | 110.663%
CC(Oc1ccc(Br)cc1)C(=O)Nc1ccc(C(N)=O)cc1 (stereo not shown) [CBK266760] | 104.259%
N#Cc1c(NC(=S)NC(=O)c2ccc(-c3cccc([N+](=O)[O-])c3)o2)sc2c1CCCC2 [CBK268471] | 124.689%
CCSc1nc(N2CCNC[C@@H]2C)ccc1C(F)(F)F [CBK003986A] | 106.479%
c1ccc2oc(-c3cc4ccccc4o3)cc2c1 [CBK113363] | 111.032%
COc1cc(N)c(Cl)cc1C(=O)OCc1cc2ccc(C)cc2nc1Cl [CBK296755] | 139.548%
Cc1c(C(=O)NC(Cc2ccsc2)c2cccnc2)cnn1C (stereo not shown) [CBK285115] | 91.5272%
O=C(CO)N1CC2(CCN(Cc3cc(=O)[nH]c(=O)[nH]3)CC2)c2ccccc21 [CBK131510] | 100.184%
Cc1cc(C)nc(N2CCC(CC(=O)NCc3ccccc3N3CCCC3)CC2)n1 [CBK286071] | 128.376%
CN(Cc1ccccc1)c1nccnc1-c1ccccc1Cl [CBK037502] | 126.189%
COc1ncc(-c2nccnc2Oc2cccc(NC(C)=O)c2)c(OC)n1 [CBK106747] | 121.754%
